Reference: patent WO2015103549A1
No constants are given. Whether binding was seen depends on the method and setting. For part of these data: Binding calls can cover weak binding; strength is not graded here.

How the values were obtained:
[1] = biological target: HIV JRFL Env on VLPs (HIV-1); assay: ELISA on HIVJRFL VLPs
[2] = biological target: HIV 96ZM651 (clade C) gp120 (HIV-1); assay: ELISA, antigen coated at 2 ug/ml
[3] = biological target: HIV CN54 (clade C) gp120 (HIV-1); assay: ELISA, antigen coated at 2 ug/ml
[4] = biological target: HIV CN54 (clade C) gp140 monomer (HIV-1); assay: ELISA, antigen coated at 2 ug/ml
[5] = biological target: Sjogren's syndrome antigen A; assay: condition: A positive response is >120 units; 50, 25, 12.5 and 6.25 ug/ml assayed; Luminex AtheNA Multi-Lyte ANA test
[6] = biological target: ribonucleoprotein; assay: as above

B1: 35022 antibody (antibody, V domains shown)
VH: QGQLVQSGAELKKPGASVKISCKTSGYRFNFYHINWIRQTAGRGPEWMGWISPYSGDKNLAPAFQDRVIMTTDTEVPVTSFTSTGAAYMEIRNLKFDDTGTYFCAKGLLRDGSSTWLPYLWGQGTLLTVSS
VL: QSVLTQSASVSGSLGQSVTISCTGPNSVCCSHKSISWYQWPPGRAPTLIIYEDNERAPGISPRFSGYKSYWSAYLTISDLRPEDETTYYCCSYTHNSGCVFGTGTKVSVL
[1]
  binding: binds
[2]
  binding: no binding
[3]
  binding: no binding
[4]
  binding: no binding
[5]
  binding: no binding
[6]
  binding: no binding
